Data source: PubChem BioAssay AID1259254 (NCATS, 2017)
Test: 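Gene knock-downs that lead to re-replication, shown by excess G2 DNA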 (primary screen). System: human HCT116 colorectal cancer cells. Reagents: single siRNA against human genes. Time to read-out: 3 days. Measured: 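Nuclei stained with Hoechst and imaged; cell-cycle phase assigned by DNA content; G2 share scaled per plate, non-targeting siRNA 0%, GMNN siRNA 100%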. Direction: G2 robust z-score and G2 cells, % of GMNN control: higher = more G2 cells, more excess DNA replication. Active means: 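Active siRNAs have a G2 robust z of 5 or more median absolute deviations over the median, which in these data means about 38% or higher of GMNN control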.
In all, the deposit lists about 59,000 reagents; this is a part drawn at random. About 1,550 of them (2.6%) were called active. 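G2 share is only a proxy for re-replication; each gene was hit by three separate siRNAs, and active genes were retested.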 Reagents against one gene are numbered here. Not all columns of the deposit are shown. The record does not give: the amount of reagent.

After knock-down of NIF3L1 (NGG1 interacting factor 3 like 1) #1, the screen gave G2 robust z-score 0.33; G2 cells, % of GMNN control 5.29; inactive.
With knock-down of NIF3L1 (NGG1 interacting factor 3 like 1) #2 the results were G2 robust z-score 3.04; G2 cells, % of GMNN control 24.3; inactive.
Depletion of NIF3L1 (NGG1 interacting factor 3 like 1) #3 gave: G2 robust z-score -1.05; G2 cells, % of GMNN control -4.39; inactive.
Depletion of PIGW (phosphatidylinositol glycan anchor biosynthesis class W) #1 came out at: G2 robust z-score 0.727; G2 cells, % of GMNN control 8.08; inactive.
PIGW (phosphatidylinositol glycan anchor biosynthesis class W) #2 gave G2 robust z-score -0.781; G2 cells, % of GMNN control -2.53; inactive.
PIGW (phosphatidylinositol glycan anchor biosynthesis class W) #3 scored G2 robust z-score 0.383; G2 cells, % of GMNN control 5.66; inactive.
Against CAMK2A (calcium/calmodulin dependent protein kinase II alpha) #1, the values are G2 robust z-score 1.57; G2 cells, % of GMNN control 14; inactive.
With knock-down of CAMK2A (calcium/calmodulin dependent protein kinase II alpha) #2 the results were G2 robust z-score -0.738; G2 cells, % of GMNN control -2.22; inactive.
After knock-down of CAMK2A (calcium/calmodulin dependent protein kinase II alpha) #3, the record shows G2 robust z-score -0.442; G2 cells, % of GMNN control -0.14; inactive.
For APLNR (apelin receptor) #1 the deposit lists G2 robust z-score -0.277; G2 cells, % of GMNN control 1.02; inactive.
Silencing of APLNR (apelin receptor) #2 gave: G2 robust z-score 1.77; G2 cells, % of GMNN control 15.4; inactive.
Silencing of APLNR (apelin receptor) #3 resulted in: G2 robust z-score -0.927; G2 cells, % of GMNN control -3.56; inactive.
Depletion of AFF2 (ALF transcription elongation factor 2) #1 resulted in: G2 robust z-score -1.01; G2 cells, % of GMNN control -4.16; inactive.
With knock-down of AFF2 (ALF transcription elongation factor 2) #2, the record shows G2 robust z-score -0.617; G2 cells, % of GMNN control -1.38; inactive.
For AFF2 (ALF transcription elongation factor 2) #3, the values are G2 robust z-score -0.496; G2 cells, % of GMNN control -0.52; inactive.
ATP9A (ATPase phospholipid transporting 9A) #1 showed G2 robust z-score -0.289; G2 cells, % of GMNN control 0.934; inactive.
After knock-down of ATP9A (ATPase phospholipid transporting 9A) #2 the results were G2 robust z-score -0.194; G2 cells, % of GMNN control 1.6; inactive.
After knock-down of ATP9A (ATPase phospholipid transporting 9A) #3 the results were G2 robust z-score -0.855; G2 cells, % of GMNN control -3.05; inactive.
For MS4A4E (membrane spanning 4-domains A4E) #1, the values are G2 robust z-score 0.714; G2 cells, % of GMNN control 7.99; inactive.
After knock-down of MS4A4E (membrane spanning 4-domains A4E) #2 the results were G2 robust z-score 2.54; G2 cells, % of GMNN control 20.8; inactive.
For MS4A4E (membrane spanning 4-domains A4E) #3 the deposit lists G2 robust z-score -0.136; G2 cells, % of GMNN control 2.01; inactive.
For PTPDC1 (protein tyrosine phosphatase domain containing 1) #1 the deposit lists G2 robust z-score -0.291; G2 cells, % of GMNN control 0.919; inactive.
Silencing of PTPDC1 (protein tyrosine phosphatase domain containing 1) #2 came out at: G2 robust z-score -0.398; G2 cells, % of GMNN control 0.166; inactive.
Against PTPDC1 (protein tyrosine phosphatase domain containing 1) #3, the entry reads G2 robust z-score -0.165; G2 cells, % of GMNN control 1.8; inactive.

Already shown: entries from further up.
MS4A4E (membrane spanning 4-domains A4E) #3 → G2 robust z-score: -0.136; G2 cells, % of GMNN control: 2.01; activity call: inactive
PTPDC1 (protein tyrosine phosphatase domain containing 1) #1 → G2 robust z-score: -0.291; G2 cells, % of GMNN control: 0.919; activity call: inactive
